Laboratory results: PubChem BioAssay AID1224826 (NIAID, 2016)

- Aim: 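Regulators of Tlr4 signalling leading to Tnf-alpha expression in macrophages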 (primary screen)
- System: RAW264.7 G9 macrophages from mouse bearing reporters for p65 (GFP) and the Tnf promoter (mCherry)
- Reagent: siRNA pool against mouse genes, 100 nM
- Time to read-out: 16 h of LPS stimulation, after 2 days of siRNA transfection
- Challenge: bacterial lipopolysaccharide (Salmonella minnesota R595), 10 ng/ml
- Measured: 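Nuclear mCherry signal of the Tnf promoter reporter measured by imaging after background removal, scaled to each plate median and turned into robust z-scores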
- Scale: Tnf reporter robust z-score: higher = stronger Tnf promoter reporter signal after LPS
- Hit rule: 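Called active when robust z-score is at most -1.3, matching the median of the Tlr4 knock-down control, or over 3; control wells and wells with under 50 cells never active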
- Calls: active = Tnf reporter clearly lowered or raised; inactive = no clear change in Tnf reporter
Shown is an unselected part of about 17,000 deposited reagents. In the full data, about 1,110 (6.6%) were called active. 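Active means lowered or raised reporter signal; replicate intensities are raw and not normalised per plate.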 Not all columns of the deposit are shown.

target | Tnf reporter robust z-score | fewer than 50 cells in well | outcome
Gdf10 (GeneID 14560) | 0.29 | enough cells in well | inactive
Anxa8 (GeneID 11752) | -1.13 | enough cells in well | inactive
Zswim4 (GeneID 212168) | -0.47 | enough cells in well | inactive
F5 (GeneID 14067) | -0.08 | enough cells in well | inactive
Neto1 (GeneID 246317) | -2.08 | enough cells in well | active
Jak3 (GeneID 16453) | 0.86 | enough cells in well | inactive
Fzd2 (GeneID 57265) | 0.16 | enough cells in well | inactive
Nek8 (GeneID 140859) | – | fewer than 50 cells per well; well left out of calls | inactive
Rpp30 (GeneID 54364) | 0.58 | enough cells in well | inactive
Pex7 (GeneID 18634) | 0.28 | enough cells in well | inactive
Mzt1 (GeneID 76789) | 1.52 | enough cells in well | inactive
Vat1l (GeneID 270097) | -1.31 | enough cells in well | active
Mast2 (GeneID 17776) | 0.35 | enough cells in well | inactive
Lrrc40 (GeneID 67144) | 1.5 | enough cells in well | inactive
Zfp101 (GeneID 22643) | 0.56 | enough cells in well | inactive
Zbtb43 (GeneID 71834) | – | fewer than 50 cells per well; well left out of calls | inactive
Ppp1r14b (GeneID 18938) | 1.05 | enough cells in well | inactive
Drgx (GeneID 107751) | 0.08 | enough cells in well | inactive
Asb15 (GeneID 78910) | -0.77 | enough cells in well | inactive
Tmx2 (GeneID 66958) | – | fewer than 50 cells per well; well left out of calls | inactive
Mysm1 (GeneID 320713) | -0.78 | enough cells in well | inactive
Ankrd13d (GeneID 68423) | 0.53 | enough cells in well | inactive
Dpysl5 (GeneID 65254) | -0.5 | enough cells in well | inactive
Fam50a (GeneID 108160) | -1.58 | enough cells in well | active
Btbd7 (GeneID 238386) | -0.56 | enough cells in well | inactive
Prg2 (GeneID 19074) | -1.07 | enough cells in well | inactive
Sim1 (GeneID 20464) | 0.2 | enough cells in well | inactive
Slc34a3 (GeneID 142681) | – | fewer than 50 cells per well; well left out of calls | inactive
Izumo1r (GeneID 64931) | 0.67 | enough cells in well | inactive
Spink12 (GeneID 78242) | 0.55 | enough cells in well | inactive
Or9e1 (GeneID 258530) | -0.81 | enough cells in well | inactive
Zmat3 (GeneID 22401) | -0.74 | enough cells in well | inactive
Hypk (GeneID 67693) | – | fewer than 50 cells per well; well left out of calls | inactive
Pf4 (GeneID 56744) | -0.48 | enough cells in well | inactive
Ttl (GeneID 69737) | 0.3 | enough cells in well | inactive
Aspm (GeneID 12316) | 1.87 | enough cells in well | inactive
Xcl1 (GeneID 16963) | 0.01 | enough cells in well | inactive
Zfp804a (GeneID 241514) | 0.96 | enough cells in well | inactive
Ghr (GeneID 14600) | 0.02 | enough cells in well | inactive
Crppa (GeneID 75847) | – | fewer than 50 cells per well; well left out of calls | inactive

Reformatted: entries from further up.
target,Tnf reporter robust z-score,fewer than 50 cells in well,outcome
Zfp101 (GeneID 22643),0.56,enough cells in well,inactive
Zbtb43 (GeneID 71834),,fewer than 50 cells per well; well left out of calls,inactive
Ppp1r14b (GeneID 18938),1.05,enough cells in well,inactive
